This passage reports binding results from publication doi:10.1101/2021.11.02.467024.

Sequences of proteins named here, by UniProt entry; tags and fusion partners are left off. A change or cut given only in a name is not applied to a line headed by its entry. A line that says so, or that is headed by a name, gives the form on record, which may keep a tag or linker. Residues count along the entry.
UniProt Q61188: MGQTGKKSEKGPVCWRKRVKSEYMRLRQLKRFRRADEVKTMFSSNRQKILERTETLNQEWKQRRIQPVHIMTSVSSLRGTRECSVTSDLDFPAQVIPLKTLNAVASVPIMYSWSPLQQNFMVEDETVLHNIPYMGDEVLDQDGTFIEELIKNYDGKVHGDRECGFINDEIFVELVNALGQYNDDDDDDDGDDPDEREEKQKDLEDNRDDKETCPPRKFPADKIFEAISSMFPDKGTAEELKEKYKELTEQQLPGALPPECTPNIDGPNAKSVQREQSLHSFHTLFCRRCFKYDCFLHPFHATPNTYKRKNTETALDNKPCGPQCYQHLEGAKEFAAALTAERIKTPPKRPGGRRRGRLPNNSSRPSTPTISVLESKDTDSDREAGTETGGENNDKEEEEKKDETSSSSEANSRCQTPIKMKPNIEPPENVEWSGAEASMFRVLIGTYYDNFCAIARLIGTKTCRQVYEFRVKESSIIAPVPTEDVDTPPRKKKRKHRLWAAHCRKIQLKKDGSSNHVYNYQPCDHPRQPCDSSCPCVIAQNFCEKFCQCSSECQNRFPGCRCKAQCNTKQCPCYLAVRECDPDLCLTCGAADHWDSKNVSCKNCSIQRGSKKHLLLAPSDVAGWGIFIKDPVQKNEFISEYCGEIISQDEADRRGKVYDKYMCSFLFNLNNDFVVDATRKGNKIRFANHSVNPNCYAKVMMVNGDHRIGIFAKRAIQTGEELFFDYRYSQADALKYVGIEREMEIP
UniProt Q15910: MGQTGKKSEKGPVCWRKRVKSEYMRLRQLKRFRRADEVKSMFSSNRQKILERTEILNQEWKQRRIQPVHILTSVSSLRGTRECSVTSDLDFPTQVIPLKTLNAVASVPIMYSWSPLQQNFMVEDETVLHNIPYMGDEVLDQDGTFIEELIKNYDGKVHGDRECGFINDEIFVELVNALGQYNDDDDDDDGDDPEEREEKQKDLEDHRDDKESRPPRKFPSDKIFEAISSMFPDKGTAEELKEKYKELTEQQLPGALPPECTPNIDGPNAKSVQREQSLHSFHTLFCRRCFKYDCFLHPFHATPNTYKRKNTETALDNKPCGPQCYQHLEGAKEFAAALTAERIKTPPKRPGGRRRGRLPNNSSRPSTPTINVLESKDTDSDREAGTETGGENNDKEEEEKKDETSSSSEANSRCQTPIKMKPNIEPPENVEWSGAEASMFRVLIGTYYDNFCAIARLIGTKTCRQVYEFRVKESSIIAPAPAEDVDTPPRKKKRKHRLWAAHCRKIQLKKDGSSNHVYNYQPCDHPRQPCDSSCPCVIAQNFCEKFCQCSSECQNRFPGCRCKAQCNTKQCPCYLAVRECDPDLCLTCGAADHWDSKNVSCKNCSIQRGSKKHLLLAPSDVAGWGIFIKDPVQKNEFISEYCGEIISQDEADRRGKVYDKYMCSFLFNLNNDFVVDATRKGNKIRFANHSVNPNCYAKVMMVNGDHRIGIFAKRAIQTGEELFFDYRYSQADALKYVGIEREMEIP
GST-EZH2 (1-170): residues 1-170 of Q15910
GST-EZH2 (1-340) (Q15910-2, form named): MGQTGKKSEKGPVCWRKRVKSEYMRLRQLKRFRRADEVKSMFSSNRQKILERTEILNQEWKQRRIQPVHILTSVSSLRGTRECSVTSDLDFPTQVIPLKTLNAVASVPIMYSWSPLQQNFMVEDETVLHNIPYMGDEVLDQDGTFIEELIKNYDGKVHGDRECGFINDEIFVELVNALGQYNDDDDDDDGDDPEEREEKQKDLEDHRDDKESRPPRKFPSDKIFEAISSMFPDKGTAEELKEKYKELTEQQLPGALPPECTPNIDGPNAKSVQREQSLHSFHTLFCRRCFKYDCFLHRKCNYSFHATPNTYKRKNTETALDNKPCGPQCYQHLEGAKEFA

Where two headings read alike, the source gives them in different places. These are yes or no findings as the source states them, for the method shown. In cells and extracts the contact can be indirect. Some results given as binding are weak or reduced against the parent protein; the word gives no strength.

In assay [1] the target is MYC/FLAG-tagged full length IMPDH2 (human) (UniProt P12268). As to the kind of experiment: co-IP.
The target of assay [2] is Ezh2, endogenous in B16-F10 murine melanoma cells (mouse (endogenous in B16-F10)) (UniProt Q61188). As to the kind of experiment: co-IP.
Assay [3] shares this target. As to the kind of experiment: co-IP. The source holds these as a separate data set.
In assay [4] the target is HA-tagged EZH2-WT (human) (UniProt Q15910). As to the kind of experiment: co-IP.
For assay [5], the target named is GST-EZH2 (1-340) (human) (UniProt Q15910). As to the kind of experiment: pull-down.
The target in assay [6] is GST-EZH2 (1-170) (human) (UniProt Q15910). As to the kind of experiment: pull-down.

With “V5-EZH2 (1-170) deletion mutant (from UniProt Q15910-2 1-170) (domain or fragment)”, the binding result in assay [1] is recorded as “binds”. Same read-out and setting: for “V5-EZH2 (1-340) deletion mutant [clone 2] (from UniProt Q15910-2 1-340) (domain or fragment)” the value was “binds”.

As to “Impdh2, endogenous in B16-F10 murine melanoma cells (from UniProt P24547 1-514) (enzyme)”, the binding result in assay [2] and in assay [3] was “binds” throughout. Turning to “V5-IMPDH2 (1-187), CBS domain of IMPDH2 (from UniProt P12268 1-187) (domain or fragment)”, the binding result in assay [4], in assay [5] and in assay [6] was “binds” in each case.
